# Data published in the supplement of paper PMC10849652.
# Sequences of proteins named here, by UniProt entry; tags and fusion partners are left off. A change or cut given only in a name is not applied to a line headed by its entry.
# UniProt Q9H0E9, whole entry, looked up: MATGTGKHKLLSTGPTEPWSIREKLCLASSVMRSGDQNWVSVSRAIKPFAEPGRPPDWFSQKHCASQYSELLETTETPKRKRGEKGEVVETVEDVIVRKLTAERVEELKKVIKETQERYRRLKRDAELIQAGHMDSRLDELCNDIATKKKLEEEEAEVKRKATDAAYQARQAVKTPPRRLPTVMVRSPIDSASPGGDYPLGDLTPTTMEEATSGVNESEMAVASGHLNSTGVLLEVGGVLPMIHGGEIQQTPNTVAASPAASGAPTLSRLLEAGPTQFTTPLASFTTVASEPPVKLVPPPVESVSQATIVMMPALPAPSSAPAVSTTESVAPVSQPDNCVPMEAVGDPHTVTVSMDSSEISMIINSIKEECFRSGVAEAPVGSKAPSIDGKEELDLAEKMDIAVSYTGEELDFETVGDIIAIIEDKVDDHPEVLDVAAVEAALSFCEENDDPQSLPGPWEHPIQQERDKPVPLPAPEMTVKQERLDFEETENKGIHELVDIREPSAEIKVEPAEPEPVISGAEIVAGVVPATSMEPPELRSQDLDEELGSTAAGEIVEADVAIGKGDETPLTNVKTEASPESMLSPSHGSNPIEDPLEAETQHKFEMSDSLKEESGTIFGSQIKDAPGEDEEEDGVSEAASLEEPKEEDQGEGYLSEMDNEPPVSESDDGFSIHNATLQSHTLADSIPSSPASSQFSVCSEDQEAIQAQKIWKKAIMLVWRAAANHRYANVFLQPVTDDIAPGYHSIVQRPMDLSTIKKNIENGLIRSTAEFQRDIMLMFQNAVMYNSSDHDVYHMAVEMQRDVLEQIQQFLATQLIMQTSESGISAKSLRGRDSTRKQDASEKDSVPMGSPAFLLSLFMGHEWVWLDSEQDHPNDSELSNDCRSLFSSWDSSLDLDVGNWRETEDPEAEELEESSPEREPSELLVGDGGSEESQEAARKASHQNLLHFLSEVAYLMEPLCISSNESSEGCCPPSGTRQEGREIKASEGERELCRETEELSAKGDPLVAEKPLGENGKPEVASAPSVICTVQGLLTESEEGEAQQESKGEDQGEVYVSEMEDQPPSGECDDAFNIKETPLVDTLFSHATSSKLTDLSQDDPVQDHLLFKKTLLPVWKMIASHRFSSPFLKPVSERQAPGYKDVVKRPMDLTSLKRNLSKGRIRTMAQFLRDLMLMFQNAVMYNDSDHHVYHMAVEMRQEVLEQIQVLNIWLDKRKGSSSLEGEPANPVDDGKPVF
# UniProt Q96GX2: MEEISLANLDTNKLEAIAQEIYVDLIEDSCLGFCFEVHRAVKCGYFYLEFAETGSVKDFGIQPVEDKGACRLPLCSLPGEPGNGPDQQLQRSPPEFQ
# UniProt P25311: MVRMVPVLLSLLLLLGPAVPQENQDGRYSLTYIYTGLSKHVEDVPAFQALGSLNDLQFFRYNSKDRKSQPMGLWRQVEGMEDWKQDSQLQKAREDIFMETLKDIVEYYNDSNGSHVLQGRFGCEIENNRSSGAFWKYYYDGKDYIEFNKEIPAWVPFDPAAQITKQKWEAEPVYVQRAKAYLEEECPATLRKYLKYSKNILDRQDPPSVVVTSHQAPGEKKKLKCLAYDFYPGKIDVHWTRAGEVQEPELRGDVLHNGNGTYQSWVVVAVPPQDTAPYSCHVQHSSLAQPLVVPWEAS
# UniProt Q9UHR4: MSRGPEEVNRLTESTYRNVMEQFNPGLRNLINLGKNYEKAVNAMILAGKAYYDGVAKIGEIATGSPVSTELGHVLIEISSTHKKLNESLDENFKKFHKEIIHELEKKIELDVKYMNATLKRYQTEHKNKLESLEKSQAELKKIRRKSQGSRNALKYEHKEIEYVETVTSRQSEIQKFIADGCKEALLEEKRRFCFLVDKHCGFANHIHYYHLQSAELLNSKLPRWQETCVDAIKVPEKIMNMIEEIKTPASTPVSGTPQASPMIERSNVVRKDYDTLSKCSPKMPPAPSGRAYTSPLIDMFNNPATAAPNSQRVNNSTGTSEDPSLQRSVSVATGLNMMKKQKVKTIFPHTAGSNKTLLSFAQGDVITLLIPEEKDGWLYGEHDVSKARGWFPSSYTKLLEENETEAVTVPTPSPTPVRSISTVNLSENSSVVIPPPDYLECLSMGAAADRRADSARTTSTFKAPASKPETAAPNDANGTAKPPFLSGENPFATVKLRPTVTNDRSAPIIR
# UniProt O15155: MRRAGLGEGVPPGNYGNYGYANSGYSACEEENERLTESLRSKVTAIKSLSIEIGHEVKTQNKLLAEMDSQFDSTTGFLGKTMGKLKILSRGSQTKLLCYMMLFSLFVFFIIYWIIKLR
# UniProt O75531: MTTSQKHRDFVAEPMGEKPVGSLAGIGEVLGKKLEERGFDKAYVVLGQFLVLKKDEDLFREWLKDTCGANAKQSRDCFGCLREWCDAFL
# UniProt Q13867: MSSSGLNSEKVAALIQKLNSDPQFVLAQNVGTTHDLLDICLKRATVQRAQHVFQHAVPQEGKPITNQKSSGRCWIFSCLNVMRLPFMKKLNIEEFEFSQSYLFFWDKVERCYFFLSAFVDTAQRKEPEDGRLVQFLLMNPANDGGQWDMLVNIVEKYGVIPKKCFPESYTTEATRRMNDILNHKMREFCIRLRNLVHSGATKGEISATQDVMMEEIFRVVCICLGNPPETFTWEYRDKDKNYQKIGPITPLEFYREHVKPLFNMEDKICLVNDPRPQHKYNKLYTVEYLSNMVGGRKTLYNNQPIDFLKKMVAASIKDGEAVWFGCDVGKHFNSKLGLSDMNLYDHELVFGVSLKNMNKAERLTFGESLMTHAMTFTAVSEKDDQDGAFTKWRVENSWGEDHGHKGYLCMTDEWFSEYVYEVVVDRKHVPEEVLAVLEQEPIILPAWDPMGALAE
# UniProt Q9P287, whole entry, looked up: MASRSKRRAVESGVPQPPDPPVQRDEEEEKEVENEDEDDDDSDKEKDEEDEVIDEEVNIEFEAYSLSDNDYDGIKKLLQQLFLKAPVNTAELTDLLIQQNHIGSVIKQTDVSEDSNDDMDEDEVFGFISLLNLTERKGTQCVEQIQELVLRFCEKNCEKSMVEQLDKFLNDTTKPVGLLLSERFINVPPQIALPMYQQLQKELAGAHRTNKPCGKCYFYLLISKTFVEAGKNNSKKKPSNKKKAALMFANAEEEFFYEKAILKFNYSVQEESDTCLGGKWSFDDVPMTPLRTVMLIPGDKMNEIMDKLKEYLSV
# UniProt Q6Y288: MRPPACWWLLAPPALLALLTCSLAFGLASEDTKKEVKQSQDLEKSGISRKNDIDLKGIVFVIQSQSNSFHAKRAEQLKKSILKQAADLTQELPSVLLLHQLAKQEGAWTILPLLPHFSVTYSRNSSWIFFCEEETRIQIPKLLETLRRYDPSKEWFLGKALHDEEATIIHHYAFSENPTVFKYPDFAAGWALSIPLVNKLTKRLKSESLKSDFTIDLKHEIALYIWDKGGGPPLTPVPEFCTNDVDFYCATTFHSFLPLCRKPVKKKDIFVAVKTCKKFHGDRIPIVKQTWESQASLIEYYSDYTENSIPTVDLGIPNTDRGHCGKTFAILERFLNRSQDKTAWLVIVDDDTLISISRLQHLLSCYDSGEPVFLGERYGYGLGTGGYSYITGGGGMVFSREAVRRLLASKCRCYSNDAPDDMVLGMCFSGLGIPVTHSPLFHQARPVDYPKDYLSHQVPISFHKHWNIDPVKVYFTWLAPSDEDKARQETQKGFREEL
# UniProt Q92843: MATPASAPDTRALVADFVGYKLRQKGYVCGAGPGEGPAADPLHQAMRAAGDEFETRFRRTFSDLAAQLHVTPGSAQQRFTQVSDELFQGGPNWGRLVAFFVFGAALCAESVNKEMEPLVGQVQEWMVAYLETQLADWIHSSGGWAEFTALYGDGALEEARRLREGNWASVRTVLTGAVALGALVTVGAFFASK
# UniProt O95861: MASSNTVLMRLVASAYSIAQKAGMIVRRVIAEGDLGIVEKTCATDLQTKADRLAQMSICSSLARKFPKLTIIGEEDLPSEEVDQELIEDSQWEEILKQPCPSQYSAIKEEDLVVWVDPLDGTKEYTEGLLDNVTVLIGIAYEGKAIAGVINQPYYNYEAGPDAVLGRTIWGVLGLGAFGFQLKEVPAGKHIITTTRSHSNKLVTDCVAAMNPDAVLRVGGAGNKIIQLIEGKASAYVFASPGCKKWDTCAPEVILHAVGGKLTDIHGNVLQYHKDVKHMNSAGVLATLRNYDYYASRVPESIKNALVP
# UniProt Q00973: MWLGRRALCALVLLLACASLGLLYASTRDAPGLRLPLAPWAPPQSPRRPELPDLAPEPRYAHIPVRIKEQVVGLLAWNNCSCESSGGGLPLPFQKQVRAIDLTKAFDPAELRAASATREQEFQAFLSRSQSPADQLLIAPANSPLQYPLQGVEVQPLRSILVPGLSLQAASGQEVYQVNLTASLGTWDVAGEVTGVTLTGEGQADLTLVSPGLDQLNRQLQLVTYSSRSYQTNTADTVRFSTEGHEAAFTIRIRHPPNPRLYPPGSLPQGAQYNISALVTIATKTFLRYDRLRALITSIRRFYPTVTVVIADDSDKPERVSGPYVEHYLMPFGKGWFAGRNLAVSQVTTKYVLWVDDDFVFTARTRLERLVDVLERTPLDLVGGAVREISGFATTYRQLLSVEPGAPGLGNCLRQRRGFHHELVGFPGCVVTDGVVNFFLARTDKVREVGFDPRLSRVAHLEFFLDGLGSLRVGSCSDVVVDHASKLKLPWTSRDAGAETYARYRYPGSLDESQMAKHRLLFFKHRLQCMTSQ
# UniProt Q9NW68: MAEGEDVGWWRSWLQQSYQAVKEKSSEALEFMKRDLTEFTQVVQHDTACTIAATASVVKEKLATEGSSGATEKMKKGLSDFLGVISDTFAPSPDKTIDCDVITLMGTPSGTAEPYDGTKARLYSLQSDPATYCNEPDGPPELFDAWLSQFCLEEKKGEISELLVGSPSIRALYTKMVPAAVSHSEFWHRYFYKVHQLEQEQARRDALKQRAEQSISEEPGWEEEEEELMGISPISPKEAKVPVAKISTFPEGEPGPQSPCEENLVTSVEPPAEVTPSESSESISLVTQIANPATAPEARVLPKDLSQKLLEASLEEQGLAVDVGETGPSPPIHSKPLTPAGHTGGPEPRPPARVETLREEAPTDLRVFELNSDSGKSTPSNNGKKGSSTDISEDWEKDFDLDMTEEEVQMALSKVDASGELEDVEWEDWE
# Some of the results follow.
# Key:
# Assay in all cases: log2 fold change, soluble protein after heating vs DMSO (PISA); higher = thermal stabilisation; K562 cells, 10 uM, 30 min; active = over 0.2 and 3.5 SD of the protein, either way, in both replicates (recomputed)
# [1] = compound: Cc1ccc(NC(=O)c2ccc(CN3CC[C@H](N(C)C)C3)c(C(F)(F)F)c2)cc1Nc1nccc(-c2cncnc2)n1 [bafetinib]
# In short: (§1)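 K562 cells at 2×10^6 cells/mL were treated with 10 μM compound for 30 min. Aliquots were heated for 3 min across 48°C-58°C, pooled, and extracted in PBS with 0.5% NP-40 at 4°C; soluble protein was the supernatant after 21,000xg for 90 min. Soluble protein was quantified by TMTpro 16plex LC-MS/MS with channel sums equalised, and reported as log2 fold change in thermal stability against DMSO controls, with values from duplicates.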
# [2] = compound: Cc1cccc(CC(=O)N2CCc3c2ccc(-c2cn(C)c4ncnc(N)c24)c3F)n1
# In short: as §1
# [3] = compound: Cc1cn(-c2cc(NC(=O)c3ccc(C)c(Nc4nccc(-c5cccnc5)n4)c3)cc(C(F)(F)F)c2)cn1 [nilotinib]
# In short: as §1
# [4] = compound: Cc1nc(Nc2n[nH]c3c2CN(C(=O)N[C@H](CN(C)C)c2ccccc2)C3(C)C)c2sccc2n1
# In short: as §1
# [5] = compound: Cc1nc(Nc2ncc(C(=O)Nc3c(C)cccc3Cl)s2)cc(N2CCN(CCO)CC2)n1 [dasatinib]
# In short: as §1
# [6] = compound: Cc1ncc(-c2ccnc(Nc3ccc(S(C)(=O)=O)cc3)n2)n1C(C)C
# In short: as §1
# [7] = compound: Cn1cc(-c2ccc3c(c2)CCN3C(=O)Cc2cccc(C(F)(F)F)c2)c2c(N)ncnc21
# In short: as §1
# [8] = compound: Cn1cc(-c2ccc3nnc(C(F)(F)c4ccc5ncccc5c4)n3n2)cn1
# In short: as §1
# [9] = compound: Cn1cncc1[C@@](N)(c1ccc(Cl)cc1)c1ccc2c(c1)c(-c1cccc(Cl)c1)cc(=O)n2C [tipifarnib]
# In short: as §1
# [10] = compound: FC(F)(F)c1ccc(/C=C/c2nc(COc3ccc(CCCCn4ccnn4)cc3)co2)cc1 [mubritinib]
# In short: as §1
# [11] = compound: NC(=O)Nc1cc(-c2cccc(F)c2)sc1C(=O)N[C@H]1CCCNC1
# In short: as §1
# [12] = compound: NC(=O)c1cnc(N[C@@H]2CCCC[C@@H]2N)nc1Nc1cccc(-n2nccn2)c1
# In short: as §1
# [13] = compound: NC1(c2ccc(-c3nc4ccn5c(=O)[nH]nc5c4cc3-c3ccccc3)cc2)CCC1
# In short: as §1
# [14] = compound: NCC(=O)Nc1ccc(-n2nc(C(F)(F)F)cc2-c2ccc3c(ccc4ccccc43)c2)cc1
# In short: as §1
# [15] = compound: Nc1ccccc1NC(=O)c1ccc(CNC(=O)OCc2cccnc2)cc1 [entinostat]
# In short: as §1
# [16] = compound: O=C(CCCCCCC(=O)Nc1ccccc1)NO [vorinostat]
# In short: as §1
# [17] = compound: O=C(CCCCCCNC(=O)c1cnc(N(c2ccccc2)c2ccccc2Cl)nc1)NO [citarinostat]
# In short: as §1
# [18] = compound: O=C(O)c1ccc2c(c1)nc(Nc1cccc(Cl)c1)c1ccncc12 [silmitasertib]
# In short: as §1
# [19] = compound: O=C1NC(=O)C(c2cnc3ccccn23)=C1c1cn2c3c(cc(F)cc13)CN(C(=O)N1CCCCC1)CC2
# In short: as §1
# [20] = compound: c1cc(OCCN2CCCCC2)cc(-c2n[nH]c3ccc(-c4nnc[nH]4)cc23)c1
# In short: as §1
Target,log2 fold change [1],log2 fold change [2],log2 fold change [3],log2 fold change [4],log2 fold change [5],log2 fold change [6],log2 fold change [7],log2 fold change [8],log2 fold change [9],log2 fold change [10],log2 fold change [11],log2 fold change [12],log2 fold change [13],log2 fold change [14],log2 fold change [15],log2 fold change [16],log2 fold change [17],log2 fold change [18],log2 fold change [19],log2 fold change [20]
BRD8 (UniProt Q9H0E9),inactive: -0.032,inactive: -0.072,inactive: -0.01,inactive: -0.055,inactive: 0.057,inactive: -0.019,inactive: 0.018,inactive: -0.028,inactive: 0.054,inactive: 0.011,inactive: 0.008,inactive: -0.107,inactive: 0.038,inactive: -0.014,inactive: -0.041,inactive: -0.125,inactive: -0.12,inactive: 0.038,inactive: 0.022,inactive: -0.059
ATXN7L3B (UniProt Q96GX2),inactive: 0.017,inactive: -0.044,inactive: 0.025,inactive: 0.029,inactive: 0.029,inactive: -0.044,inactive: 0.12,inactive: 0.046,inactive: 0.08,inactive: 0.042,inactive: 0.008,inactive: -0.002,inactive: 0.018,inactive: -0.016,inactive: -0.007,inactive: 0.008,inactive: 0.036,inactive: 0.013,inactive: -0.168,inactive: -0.014
AZGP1 (UniProt P25311),inactive: 0.361,inactive: -0.299,inactive: -0.068,inactive: 0.304,inactive: -0.315,inactive: 0.606,inactive: 0.489,inactive: 0.279,inactive: 0.078,inactive: -0.115,inactive: 0.77,inactive: 0.265,inactive: -0.088,inactive: 0.355,inactive: 0.487,inactive: 0.168,inactive: -0.482,inactive: -0.34,inactive: -0.09,inactive: 1.45
BAIAP2L1 (UniProt Q9UHR4),inactive: -0.045,inactive: -0.014,inactive: -0.007,inactive: -0.065,inactive: 0.018,inactive: -0.014,inactive: 0.042,inactive: 0.023,inactive: 0.014,inactive: 0.031,inactive: -0.062,inactive: -0.006,inactive: -0.021,inactive: 0.012,inactive: -0.014,inactive: 0.024,inactive: 0.021,inactive: 0.002,inactive: -0.018,inactive: -0.02
BRD4 (UniProt O60885),inactive: 0.067,inactive: 0.054,inactive: -0.144,inactive: 0.017,inactive: -0.094,inactive: -0.233,inactive: 0.011,inactive: -0.046,inactive: -0.09,inactive: 0.032,inactive: -0.031,inactive: -0.096,inactive: -0.112,inactive: -0.119,inactive: -0.097,active: -0.463,inactive: -0.123,inactive: 0.024,inactive: -0.129,inactive: 0.028
BET1 (UniProt O15155),inactive: -0.093,inactive: -0.03,inactive: -0.019,inactive: 0.042,inactive: 0.038,inactive: -0.008,inactive: 0.008,inactive: 0.041,inactive: -0.029,inactive: -0.032,inactive: -0.014,inactive: -0.117,inactive: -0.02,inactive: -0.038,inactive: 0.066,inactive: 0.027,inactive: 0.028,inactive: 0,inactive: -0.104,inactive: -0.084
BANF1 (UniProt O75531),inactive: -0.09,inactive: -0.036,inactive: -0.012,inactive: 0.137,inactive: 0.072,inactive: 0.005,inactive: 0.072,inactive: 0.225,inactive: 0.066,inactive: -0.016,inactive: -0.089,inactive: 0.069,inactive: 0.109,inactive: -0.069,inactive: -0.123,inactive: -0.156,inactive: 0.002,inactive: 0.007,inactive: -0.151,inactive: 0.006
BLMH (UniProt Q13867),inactive: 0.047,inactive: 0.005,inactive: 0.09,inactive: -0.067,inactive: 0.018,inactive: 0.049,inactive: -0.012,inactive: -0.023,inactive: 0.084,inactive: -0.019,inactive: 0.091,inactive: 0.063,inactive: 0.018,inactive: 0.028,inactive: -0.002,inactive: 0.034,inactive: 0.03,inactive: -0.014,inactive: 0.092,inactive: 0.369
BCCIP (UniProt Q9P287),inactive: 0.048,inactive: 0,inactive: -0.019,inactive: -0.022,inactive: -0.161,inactive: 0.03,inactive: -0.009,inactive: -0.006,inactive: 0.006,inactive: 0.001,inactive: 0.023,inactive: -0.008,inactive: -0.006,inactive: -0.04,inactive: -0.052,inactive: 0.045,inactive: 0.022,inactive: 0.049,inactive: -0.012,inactive: -0.079
BORCS5 (UniProt Q969J3),inactive: -0.065,inactive: 0.051,inactive: -0.033,inactive: -0.018,inactive: 0.035,inactive: 0.029,inactive: 0.066,inactive: 0.073,inactive: 0.047,inactive: 0.04,inactive: 0.008,inactive: 0.017,inactive: -0.081,inactive: -0.037,inactive: 0.039,inactive: -0.152,inactive: 0.069,inactive: -0.044,inactive: -0.198,inactive: 0.032
B3GLCT (UniProt Q6Y288),inactive: 0.049,inactive: 0.002,inactive: 0.046,inactive: 0.015,inactive: -0.108,inactive: -0.072,inactive: -0.036,inactive: -0.033,inactive: -0.24,inactive: -0.094,inactive: 0.001,inactive: 0.005,inactive: -0.036,inactive: -0.038,inactive: -0.032,inactive: -0.14,inactive: -0.04,inactive: -0.025,inactive: 0.054,inactive: 0.028
BCL2L2 isoform 2 (UniProt Q92843),inactive: -0.018,inactive: -0.058,inactive: -0.114,inactive: 0.017,inactive: 0.132,inactive: 0.096,inactive: -0.128,inactive: -0.098,inactive: 0.012,inactive: -0.114,inactive: -0.059,inactive: 0.072,inactive: 0.117,inactive: -0.005,inactive: 0.041,inactive: 0.038,inactive: -0.032,inactive: 0.088,inactive: 0.057,inactive: -0.213
BPNT1 (UniProt O95861),inactive: 0.021,inactive: -0.027,inactive: 0.1,inactive: 0.042,inactive: 0.028,inactive: 0.001,inactive: 0.023,inactive: 0.01,inactive: -0.049,inactive: 0.037,inactive: -0.017,inactive: 0.004,inactive: 0.007,inactive: -0.016,inactive: -0.011,inactive: -0.023,inactive: 0.003,inactive: -0.032,inactive: -0.046,inactive: -0.01
B4GALNT1 (UniProt Q00973),inactive: 0.141,inactive: -0.042,inactive: 0.083,inactive: 0.012,inactive: 0.076,inactive: -0.125,inactive: -0.128,inactive: 0.036,inactive: 0.025,inactive: 0.015,inactive: -0.001,inactive: -0.062,inactive: -0.093,inactive: 0.092,inactive: 0.02,inactive: 0.003,active: 0.538,inactive: 0.062,inactive: -0.095,inactive: 0.064
BSDC1 (UniProt Q9NW68),inactive: -0.142,inactive: 0.011,inactive: -0.014,inactive: -0.019,inactive: -0.003,inactive: -0.018,inactive: -0.006,inactive: 0.009,inactive: -0.031,inactive: 0.017,inactive: 0.024,inactive: -0.046,inactive: -0.084,inactive: 0.003,inactive: -0.036,inactive: 0.002,inactive: 0.055,inactive: 0.033,inactive: -0.048,inactive: -0.044

# Reformatted as tab-separated lines: entries from further up
Target	log2 fold change [1]	log2 fold change [2]	log2 fold change [3]	log2 fold change [4]	log2 fold change [5]	log2 fold change [6]	log2 fold change [7]	log2 fold change [8]	log2 fold change [9]	log2 fold change [10]	log2 fold change [11]	log2 fold change [12]	log2 fold change [13]	log2 fold change [14]	log2 fold change [15]	log2 fold change [16]	log2 fold change [17]	log2 fold change [18]	log2 fold change [19]	log2 fold change [20]
ATXN7L3B (UniProt Q96GX2)	inactive: 0.017	inactive: -0.044	inactive: 0.025	inactive: 0.029	inactive: 0.029	inactive: -0.044	inactive: 0.12	inactive: 0.046	inactive: 0.08	inactive: 0.042	inactive: 0.008	inactive: -0.002	inactive: 0.018	inactive: -0.016	inactive: -0.007	inactive: 0.008	inactive: 0.036	inactive: 0.013	inactive: -0.168	inactive: -0.014
BANF1 (UniProt O75531)	inactive: -0.09	inactive: -0.036	inactive: -0.012	inactive: 0.137	inactive: 0.072	inactive: 0.005	inactive: 0.072	inactive: 0.225	inactive: 0.066	inactive: -0.016	inactive: -0.089	inactive: 0.069	inactive: 0.109	inactive: -0.069	inactive: -0.123	inactive: -0.156	inactive: 0.002	inactive: 0.007	inactive: -0.151	inactive: 0.006
B4GALNT1 (UniProt Q00973)	inactive: 0.141	inactive: -0.042	inactive: 0.083	inactive: 0.012	inactive: 0.076	inactive: -0.125	inactive: -0.128	inactive: 0.036	inactive: 0.025	inactive: 0.015	inactive: -0.001	inactive: -0.062	inactive: -0.093	inactive: 0.092	inactive: 0.02	inactive: 0.003	active: 0.538	inactive: 0.062	inactive: -0.095	inactive: 0.064
BSDC1 (UniProt Q9NW68)	inactive: -0.142	inactive: 0.011	inactive: -0.014	inactive: -0.019	inactive: -0.003	inactive: -0.018	inactive: -0.006	inactive: 0.009	inactive: -0.031	inactive: 0.017	inactive: 0.024	inactive: -0.046	inactive: -0.084	inactive: 0.003	inactive: -0.036	inactive: 0.002	inactive: 0.055	inactive: 0.033	inactive: -0.048	inactive: -0.044
